Measurements as given in US12728132B2, “Inhibitors of the peptidyl-prolyl cis/trans isomerase (PIN1), combinations and uses thereof” (DANA-FARBER CANCER INSTITUTE, INC., priority 2021, dated 2026).
At least one compound was matched to its structure with a doubt left.

What was measured:
MDA-MB-231 cells = assay: Immunoblot of APC/C^Cdh1 substrates and Pin1 after kinase inhibitor treatment; type: cell-based, human; conditions: 2 μM, 3 days
TNBC = conditions: single agents; cited from earlier work
MCF-7 cells = assay: Time-lapse single-cell tracking with APC-degron reporter; type: cell-based, human; conditions: single living cells tracked, asynchronous MCF-7
Experimental: MCF-7 cells were stably expressed with mCherry-Geminin (1-110) and a histone H2B-Turquoise. Cells were then plated 24 hours before starting the microscope acquisition. Pin1 inhibitors or CDK4/6 inhibitors were added in the medium and imaged using a Nikon Eclipse TE-2000 inverted microscope with a 10× Plan Apo objective and a Hammamatsu Orca ER camera, equipped with environmental chamber controlling temperature, atmosphere (5% CO2) and humidity. Images were acquired every 30 min using the MetaMorph Software. For each condition filmed, 4 different fields were selected.
p53Cinema single cell analysis package was used for semiautomatic tracking of individual cells in live cell imaging datasets as described previously (Reyes et al., Mol Cell 2018; 71:581-91 e5). Tracking data were then used to quantify intensity of fluorescent reporters from background subtracted images by averaging 10 pixels within the cell nucleus. Cells were tracked using only information about a constitutively expressed nuclear marker, such as H2B-Turquoise, and were thus blind to the dynamics of molecular players of interest, such as mCherry-Geminin. Only cells that remained within the field of view throughout the entire duration of the experiment were considered for downstream analyses. […] S/G2 durations were calculated by the time that cells spent in S/G2 phase after drugs were added.

RB−/− MDA-MB-231 cells = assay: Palbociclib treatment and colony formation in Rb1-deficient cells; type: cell-based, human
[1] = test system: TNBC patient-derived xenograft (TM00096); assay: In vivo therapy for TNBC patient-derived xenografts (PDOX); design: species or system human tumor in BALB/c nude mice; conditions: Rb-proficient TNBC PDOX, nude mice
Experimental: All animal experiments were approved by the IACUC of the Beth Israel Deaconess Medical Center. Triple-negative BC patient-derived xenograft (TM00096) was purchased from Jackson Laboratories. Pieces from PDOX tumors were subcutaneously implanted into flank of 6-week-old BALB/c female nude mice. Tumor sizes were measured every three days by caliper after implantation and tumor volume was calculated by the modified ellipsoidal formula: tumor volume=½length×width^2. Treatments were started once the tumors reached 5 mm in diameter and continued until tumors reached 15 mm in any direction. […] Sulfopin treatment was given by intraperitoneal injection with a dosage of 40 mg/kg (dissolved solution: 5% DMSO in D5W, 7 days/week), palbociclib treatment was given by oral gavage with a dosage of 100 mg/kg (dissolved solution: saline, 5 days/week), abemaciclib treatment was given by oral gavage with a dosage of 100 mg/kg (dissolved solution: 0.5% CMC-Na, 5 days/week), or drug combinations in which each compound was administered at the same dose and scheduled as a single agent. […]
PDOX tumor tissue sections were boiled in 10 mM sodium citrate (pH 6.0), for antigen retrieval after deparaffinization. […] Slides were scanned at least three different representative areas at 20× magnification using BZ-X800 fluorescence microscope (KEYENCE).

## CC(=O)c1c(C)c2cnc(Nc3ccc(N4CCNCC4)cn3)nc2n(C2CCCC2)c1=O [palbociclib]
MDA-MB-231 cells
  levels of APC/C^Cdh1 known substrates and Pin1: significantly decreased
TNBC
  single agent activity in TNBC: neither palbociclib nor ribociclib has activity in TNBC
MCF-7 cells
  APC-degron reporter intensity and cell cycle: starkly decreased reporter intensity and cell cycle arrest
RB−/− MDA-MB-231 cells
  sensitivity of Rb1-deficient cells: resistant
[1]
  tumor growth: limited single agent activity
